Results: PubChem BioAssay AID493014 (National Center for Advancing Translational Sciences (NCATS), 2011)
Several values for one entry are separate records, joined by “and”; a condition that tells them apart may be missing. Equal entries are not always repeated. Some of the results follow. These are further read-outs of the screen, such as a control signal, another cell line or another target. No call is given for them. The list favours compounds with an active or inconclusive main result. The note in brackets gives the kind of curve behind each potency; many fits are weak.

Test: qHTS Assay to Find Inhibitors of Chronic Active B-Cell Receptor Signaling
Details: ABC-DLBCL IkBa-CBG/CBR reporter, luminescence ratio (green luciferase fused to IkBa over red control in TMD8 lymphoma cells), 4 h
How it was run: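 TMD8 ABC-DLBCL cells carrying doxycycline-inducible green luciferase fused to IkappaBalpha plus unfused red luciferase were exposed to compounds (up to 46 uM) for 4 hrs at 37C. Activity came from the overlap-corrected green/red luminescence ratio.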

[1] = measured here: CBR red luminescence, cell number

In the case of Cc1[nH]n(-c2ccc(Cl)cc2)c(=O)c1N=Nc1cccnc1, the AC50 [1] is reported as 1.12 µM [rising, full curve, poor fit].
For O=C(NN1C(=O)c2ccccc2C1=O)C1C2CCCCC21 (centres undefined), the AC50 [1] was 11.6 µM [rising, partial curve].
For Cc1ccc(C(=O)NNC(=S)Nc2cccc3ccccc23)s1, the AC50 [1] was 10 µM [falling, partial curve, poor fit].
For O=C(NCCN1C(=O)S/C(=C\c2ccc(F)cc2)C1=O)c1cccc(S(=O)(=O)N2CCOCC2)c1, the AC50 [1] was 20.6 µM [falling, single point].
For CC1CN(c2ccc([N+](=O)[O-])cc2Cl)CCN1S(C)(=O)=O (centres undefined), the AC50 [1] was 1.26 µM [falling, partial curve].
For COc1ccc(N(CC(=O)NCc2ccc(F)cc2)C(=O)Cn2nnc(-c3ccc(C)o3)n2)cc1OC, the AC50 [1] was 2.82 µM [falling, single point].
In the case of Cc1nn(-c2ncc(C(F)(F)F)cc2Cl)c(=O)n1-c1ccccc1Cl, the AC50 [1] is reported as 5.8 µM [rising, full curve, poor fit].
With O=C(Nc1nnc(C2CC2)s1)c1ccco1 the AC50 [1] was 22.4 µM [falling, single point].
In the case of CCc1ccc(C(=O)COC(=O)C(Cc2c[nH]c3ccccc23)NC(=O)c2ccc(CC)cc2)cc1 (centres undefined), the AC50 [1] is reported as 0.562 µM [rising, full curve, poor fit].
For CCN(C(=O)CSc1nc2cc(C(F)(F)F)ccc2n1Cc1ccccc1)C1CCS(=O)(=O)C1 (centres undefined), the AC50 [1] was 2.06 µM [rising, partial curve, poor fit].
With Cc1ccccc1CC1(CO)CCCN(C(=O)c2cc(Cl)ccc2F)C1 (centres undefined) the AC50 [1] was 35.5 µM [falling, partial curve, poor fit].
In the case of COCCNC(=O)/C(C#N)=C/c1cn(CC(=O)NCc2ccco2)c2ccccc12, the AC50 [1] is reported as 6.31 µM [rising, single point].
For c1ccc2c(Cn3ccnc3)c[nH]c2c1, the AC50 [1] was 20.6 µM [rising, single point].
With O=C(c1ccccc1)N1CCc2ccccc21 the AC50 [1] was 23.1 µM [rising, partial curve, poor fit].
In the case of COc1ccc(-c2csc(-n3ncc(C(=O)O)c3C(F)(F)F)n2)cc1, the AC50 [1] is reported as 7.94 µM [falling, partial curve].
In the case of N#C/C(=C\c1ccc(-c2ccccc2)cc1)c1nc(-c2ccco2)cs1, the AC50 [1] is reported as 0.58 µM [rising, full curve, poor fit].
For CC1(C)Cc2c(sc3nc(-c4ccccc4)n(N)c(=O)c23)CO1, the AC50 [1] was 10 µM [falling, partial curve, poor fit].
For O=C(/C=C/c1cccs1)N1CCc2ccccc21, the AC50 [1] was 20.6 µM [falling, partial curve, poor fit].
With CCCc1cc(C(=O)Nc2sc3c(c2C#N)CCC3)no1 the AC50 [1] was 5.8 µM [rising, partial curve, poor fit].
In the case of CCCNC(=O)NC(=O)COC(=O)c1cccc(NS(=O)(=O)c2ccc(F)c(F)c2)c1, the AC50 [1] is reported as 29.1 µM [falling, single point].
For CCOCCCNC(=O)/C(C#N)=C/c1cc(Br)c(O)c(Br)c1, the AC50 [1] was 15.8 µM [rising, single point] and the AC50 (measured here: IkBa-CBG green luminescence) was 11.2 µM [falling, single point].
In the case of COc1cc(C2OC(=O)c3c2ccc(OC)c3OC)ccc1O (centres undefined), the AC50 [1] is reported as 2.31 µM [rising, single point].
For O=[N+]([O-])c1cccc(-c2csc(Nc3ccccc3)n2)c1, the AC50 [1] was 35.5 µM [falling, single point].
With COc1ccc(CC(=O)N/N=C/c2ccc(Cl)s2)cc1OC the AC50 [1] was 12.6 µM [rising, single point].
For CC1CCCN(CCCNC(=O)c2ccc3c(c2)N(Cc2cccc(Cl)c2)C(=O)c2ccccc2S3(=O)=O)C1 (centres undefined), the AC50 [1] was 35.5 µM [falling, single point].
With O=[N+]([O-])c1nn(-c2ccc3c(c2)OCCO3)n(O)c1=NCCC1=CCCCC1 the AC50 [1] was 35.5 µM [rising, partial curve, poor fit].
In the case of COc1ccc(/C=C/c2ccc3c(Br)ccc(O)c3n2)cc1, the AC50 [1] is reported as 8.91 µM [rising, partial curve, poor fit].
In the case of CCC(C)NC(=O)[C@H]1N2C(=O)c3c(ccc(OC)c3OC)C2SC1(C)C (some centres undefined), the AC50 [1] is reported as 0.891 µM [falling, full curve, poor fit].
For O=C(CCS(=O)(=O)c1ccc(Cl)cc1)Nc1nc(-c2ccncc2)cs1, the AC50 [1] was 0.562 µM [falling, full curve, poor fit].
With CC(C)NC(=O)CC(c1ccccc1)c1cc(Br)ccc1O (centres undefined) the AC50 [1] was 29.1 µM [falling, single point].
With O=C(O)CCn1nc(-c2ccc(F)cc2)cc(Cc2ccccc2)c1=O the AC50 [1] was 35.5 µM [falling, partial curve, poor fit].
With CN1CCC(N(C)C(=O)c2ccc(Cl)c(S(=O)(=O)N3CCc4ccccc43)c2)CC1 the AC50 [1] was 29.1 µM [falling, partial curve, poor fit].
For Cc1ccc(C)c(CSc2nc3ccncc3n2CC(=O)Nc2ccc(C)c(C)c2)c1, the AC50 [1] was 29.1 µM [falling, single point].
For COc1cc(/C=C/c2nc(N)nc(-c3ccccc3O)n2)cc(OC)c1OC, the AC50 [1] was 2.59 µM [falling, full curve, poor fit].
In the case of COC(=O)C1=C(C)N(Cc2ccccc2)C(=NCCc2c[nH]c3ccccc23)N[C@H]1c1cccc(F)c1, the AC50 [1] is reported as 29.1 µM [falling, single point].
In the case of CCN(CCCNC(=O)CC(C(=O)N1CCc2ccccc21)n1ccnc1)c1cccc(C)c1 (centres undefined), the AC50 [1] is reported as 22.4 µM [falling, partial curve, poor fit].
With CCCCNC(=O)C1CCC(CNc2c(N3CCC(C)CC3)c(=O)c2=O)CC1 (centres undefined) the AC50 [1] was 10 µM [rising, partial curve].
With C/C(=N\NC(=O)Nc1ccccc1)c1ccc2ccccc2c1 the AC50 [1] was 4.11 µM [rising, full curve, poor fit].
In the case of Cc1ccccc1NC(=O)c1cn(-c2ccccc2)nc1-c1ccccc1, the AC50 [1] is reported as 18.4 µM [falling, partial curve, poor fit].
In the case of O=C(COc1ccc(NC(=O)c2ccccc2[N+](=O)[O-])cc1)c1ccc(F)cc1, the AC50 [1] is reported as 25.1 µM [falling, single point].
In the case of Cc1ccccc1-c1ccnc2[nH]n(-c3ccccc3)c(=O)c12, the AC50 [1] is reported as 1.41 µM [falling, full curve, poor fit].
With CC(NC(=O)CSc1nnc(-c2cccc(S(=O)(=O)N3CCCCC3)c2)o1)C12CC3CC(CC(C3)C1)C2 (centres undefined) the AC50 [1] was 0.731 µM [rising, partial curve, poor fit].
For C/C(=N\NC(=O)c1nc2ccccn2c1C)c1cc2ccccc2o1, the AC50 [1] was 5.01 µM [falling, partial curve].
In the case of O=C(/C=C/c1ccc(NC(=O)c2ccccc2-c2ccccc2C(=O)O)cc1)c1ccccc1, the AC50 [1] is reported as 35.5 µM [falling, single point].
For Nc1nonc1C(=Nc1ccc(Br)cc1)NO, the AC50 [1] was 1.03 µM [falling, full curve, poor fit].
In the case of CCN(CCS(=O)(=O)c1ccc(Br)cc1)Cc1nc2ccccc2c(=O)[nH]1, the AC50 [1] is reported as 5.17 µM [falling, single point].
In the case of O=C(CNC(=O)Cc1ccccc1)NCC(=O)OCc1ccc(C(=O)c2ccccc2)cc1, the AC50 [1] is reported as 0.0891 µM [rising, full curve, poor fit].
In the case of CC(C)(C)C1CCc2onc(C(=O)NCc3ccc(F)cc3)c2C1 (centres undefined), the AC50 [1] is reported as 14.1 µM [falling, single point].
For N=c1n(CCCOc2ccccc2Cl)c2ccccc2n1CC(N)=O, the AC50 [1] was 25.1 µM [falling, single point].
In the case of CC(=O)Nc1ccc(S(=O)(=O)N2CCN=C2SCc2ccccc2C)cc1, the AC50 [1] is reported as 10 µM [rising, single point].
In the case of O=C(CCC(=O)c1cccs1)Nc1ccccc1F, the AC50 [1] is reported as 11.2 µM [falling, partial curve].
With CC(C)c1ccc(NC(=O)CSC2=Nc3ccccc3C3=NC(CC(=O)NCc4cccs4)C(=O)N23)cc1 (centres undefined) the AC50 [1] was 7.08 µM [falling, partial curve].
In the case of Nc1nc(NCc2c(F)cccc2Cl)nn1-c1ccccc1, the AC50 [1] is reported as 23.1 µM [falling, single point].
In the case of COc1ccccc1C(CCN(Cc1ccccc1)C(C)=O)c1ccco1 (centres undefined), the AC50 [1] is reported as 17.8 µM [falling, partial curve, poor fit].
With CCc1ccc(NC(=O)C(C)Oc2nnc(-c3cccs3)c(-c3cccs3)n2)cc1 (centres undefined) the AC50 [1] was 29.1 µM [rising, single point].
With CCOc1ccc(NS(=O)(=O)c2ccc3[nH]cc(C(=O)N(CC)CC)c(=O)c3c2)cc1 the AC50 [1] was 12.6 µM [falling, single point].
In the case of CC/C(=N\Nc1nncc2ccccc12)c1ccc(F)cc1, the AC50 [1] is reported as 35.5 µM [falling, single point].
For N=C1C(c2nc(-c3ccc(F)cc3)cs2)=C(O)CN1Cc1ccc(Cl)cc1, the AC50 [1] was 29.1 µM [rising, single point].
In the case of CC(O)C(O)C(O)C(O)/C=N/NC(=O)c1ccccc1 (centres undefined), the AC50 [1] is reported as 10.3 µM [falling, partial curve, poor fit].
For Fc1c(F)c(C(F)(F)F)c(F)c(F)c1N/N=C\c1cccs1, the AC50 [1] was 2.91 µM [rising, partial curve, poor fit].
In the case of Cc1cccc(OCC(=O)O/N=C(\N)c2ccc(Cl)cc2)c1, the AC50 [1] is reported as 0.447 µM [rising, full curve, poor fit].
In the case of CCCCNC(=O)Nc1ccccc1CC, the AC50 [1] is reported as 0.112 µM [falling, full curve, poor fit].
For CN1CCC(=C2c3ccccc3CCc3sccc32)CC1, the AC50 [1] was 35.5 µM [falling, single point] and 29.1 µM [falling, single point].
